# Data taken from the supplement of paper PMC7024190.
# The other results are listed elsewhere or left out. Single values are uncertain here, since repeats match poorly.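 Human embryonic kidney cells were transiently transfected with a plasmid bearing a Renilla luciferase gene under the HSV-TK promoter. This first-round screen tests roughly ten thousand compounds for ones that increase reporter output.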
# Tested on: HEK 293FT
# Experiment: log relative Renilla luciferase luminescence (reporter expression vs reference, reference not stated) (log (base not stated)); higher = higher recombinant reporter expression
# Settings: 10 µM; time after transfection 48 h
# Method: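 HEK 293FT cells transiently transfected with pRL-TK (Renilla luciferase) were treated with compounds at 10 uM and luminescence was read about 42 h later. Values are log relative Renilla luminescence (log base and reference not stated). Single-pass screen; ICCB Known Bioactives library.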
row,SMILES,log
1,N#Cc1nn(-c2c(Cl)cc(C(F)(F)F)cc2Cl)c(N)c1[S+]([O-])C(F)(F)F (stereo not given) [Fipronil],0.0729
2,CC(C)(c1ccc(OCC2CO2)cc1)c1ccc(OCC2CO2)cc1 (stereo not given),-0.00904
3,C/C1=C/C(=O)O[C@@H]2C[C@@H](CC[C@H](C)/C=C\CC1)O[C@@](O)([C@@H]1CSC(=O)N1)C2 [Latrunculin B],0.311
4,COc1c(C[C@@H](C)OC(=O)Oc2ccc(O)cc2)c2c3c(C[C@@H](C)OC(=O)c4ccccc4)c(OC)c(=O)c4c(O)cc(OC)c(c5c(OC)cc(O)c(c1=O)c52)c43 [Calphostin C],-0.324
5,C[C@@H]1O[C@@H](O[C@H]2C[C@@H](O)[C@]3(CO)[C@H]4[C@H](O)C[C@]5(C)[C@@H](C6=CC(=O)OC6)CC[C@]5(O)[C@@H]4CC[C@]3(O)C2)[C@H](O)[C@H](O)[C@H]1O [Ouabain],-1.8
6,COc1ccc2c(c[n+](C)c3c4cc5c(cc4ccc23)OCO5)c1OC [Chelerythrine],-0.159
7,COC(=O)[C@@H](N)CCCNC(=N)N[N+](=O)[O-],-0.308
8,O[C@H]1[C@H](O)[C@@H](O)CN2CC[C@H](O)[C@H]12 [Castanospermine],-0.0751
9,COC(=O)[C@@]1(O)C[C@H]2O[C@]1(C)n1c3ccccc3c3c4c(c5c6ccccc6n2c5c31)C(=O)NC4,0.251
10,"CCCCCC1OC1C/C=C\CCCCCCCC(=O)O (stereo not given) [Leukotoxin B (12,13-EODE)]",-0.232
11,CCN1C[C@]2(COC)[C@H](O)C[C@H](OC)[C@@]34[C@@H]5C[C@@]6(O)[C@H](OC(=O)c7ccccc7)[C@@H]5[C@@](OC(C)=O)([C@@H]([C@H](OC)[C@H]23)[C@@H]14)[C@@H](O)[C@@H]6OC [Aconitine],-0.147
12,Clc1ccc(C2CC3CCC2N3)cn1 (racemic) [Epibatidine (±)],-0.132
13,CO[C@@H]1C[C@@H](C[C@H]2CC[C@H](C)[C@H]([C@@H](C)C(=O)O)O2)O[C@]2(O[C@](C)([C@H]3CC[C@@](C)([C@@H]4O[C@@H]([C@H]5O[C@@](O)(CO)[C@H](C)C[C@@H]5C)C[C@@H]4C)O3)C[C@H]2C)[C@@H]1C [Nigericin],-0.577
14,C[C@H]1CCC/C=C/[C@@H]2C[C@H](O)C[C@H]2[C@H](O)/C=C/C(=O)O1 [Brefeldin A],-0.7
15,O=C1C2CCN(CC2)C1(CO)CO,-0.13
16,CC1=C(CC/C(C)=C/CCC2=CC[C@H](C3=CC(=O)O[C@H]3O)O[C@H]2O)C(C)(C)CCC1 [Manoalide],0.00897
17,CC1(C)[C@@H](O)C[C@H]2[C@](C)(O)[C@@H]3CC[C@@H]4[C@@H](O)[C@@]3(C[C@@H](O)[C@@]21O)C[C@@]4(C)O [Grayanotoxin III],-0.00555
18,"CCCCC/C=C\C/C=C\C/C=C\C/C=C\CCCC(=O)NCCO [Anandamide (22:4,n-6)]",0.195
19,CCCCC[C@@H](/C=C/C=C\C/C=C\C/C=C\CCCC(=O)O)OO,0.116
20,CCCCCCCCCCCCCCCC(=O)OCC(COP(=O)([O-])OCC[N+](C)(C)C)OC(C)=O (stereo not given),0.228

# Fetched one by one from above (two):
row,SMILES,log
1,N#Cc1nn(-c2c(Cl)cc(C(F)(F)F)cc2Cl)c(N)c1[S+]([O-])C(F)(F)F (stereo not given) [Fipronil],0.0729
5,C[C@@H]1O[C@@H](O[C@H]2C[C@@H](O)[C@]3(CO)[C@H]4[C@H](O)C[C@]5(C)[C@@H](C6=CC(=O)OC6)CC[C@]5(O)[C@@H]4CC[C@]3(O)C2)[C@H](O)[C@H](O)[C@H]1O [Ouabain],-1.8

# Further entries follow.

row,SMILES,log
1,CCNC(=O)C1OC(n2cnc3c(N)ncnc32)C(O)C1O (stereo not given) [5'-N-Ethylcarboxamidoadenosine (NECA)],-0.286
2,O=c1c2ccccc2[se]n1-c1ccccc1 [Ebselen],-0.447
3,C=C1[C@@H](C)[C@H]2[C@H](Cc3ccccc3)NC(=O)[C@]23OC(=O)/C=C/[C@H](O)CCC[C@@H](C)C/C=C/[C@H]3[C@@H]1O [Cytochalasin B],-0.295
4,CC(C)[C@@]1(O)[C@@H](OC(=O)c2ccc[nH]2)[C@@]2(O)[C@@]3(C)C[C@]4(O)O[C@@]5([C@H](O)[C@@H](C)CC[C@]35O)[C@@]2(O)[C@@]14C [Ryanodine],0.0589
5,CC(=O)C1=C(O)[C@@H]2[C@H]3c4c[nH]c5cccc(c45)C[C@H]3C(C)(C)N2C1=O [Cyclopiazonic acid],0.104
6,COC[C@@H]([C@H](O)[C@H](O)C(=O)NCC[C@H](C)c1nc(/C=C/C[C@@H]2O[C@]3(C[C@@H](O)[C@@H]2C)O[C@H]([C@H](C[C@H](O)[C@H](C)[C@H](O)[C@H](C)/C=C(C)/C(C)=C/C=C/C(C)=C\C#N)OC)[C@H](OP(=O)(O)O)C3(C)C)co1)N(C)C [Calyculin A],-1.45
7,"CCCCC/C=C\CC1OC1CCCCCCCC(=O)O (stereo not given) [Leukotoxin A (9,10-EODE)]",-0.197
8,CC(=O)N[C@H]1[C@@H](O[C@@H]2O[C@H](CC(O)[C@H]3O[C@@H](n4ccc(=O)[nH]c4=O)[C@H](O)[C@@H]3O)[C@H](O)[C@H](O)[C@H]2NC(=O)/C=C/CC(C)C)O[C@H](CO)[C@@H](N)[C@@H]1O (stereo not given in full) [Tunicamycin],0.0123
9,C#CCN(C)C(C)Cc1ccccc1 (stereo not given) [Deprenyl],0.291
10,CC(C)[C@]12O[C@H]1[C@@H]1O[C@]13[C@]1(O[C@H]1C[C@H]1C4=C(CC[C@@]13C)C(=O)OC4)[C@@H]2O [Triptolide],-1.32
11,COC[C@H]1OC(=O)c2coc3c2[C@@]1(C)C1=C(C3=O)[C@@H]2CCC(=O)[C@@]2(C)C[C@H]1OC(C)=O [Wortmannin],-0.176
12,CC(C)(O)[C@H]1O[C@H]2CC[C@@]3(C)[C@@](O)(CC[C@H]4Cc5c([nH]c6ccccc56)[C@@]43C)C2=CC1=O [Paxilline],0.0758
13,COc1ccc(C(=O)O[C@H]2CC[C@@]3(C)[C@@H]4CC[C@H]5[C@]6(O)C[C@H](O)[C@@]7(O)[C@@H](CN8C[C@@H](C)CC[C@H]8[C@@]7(C)O)[C@]6(O)C[C@@]53O[C@]24O)cc1OC [Veratridine],0.192
14,C=C1C(=O)O[C@@H]2C[C@@H](C)[C@@H]3C=CC(=O)[C@@]3(C)[C@@H](O)[C@H]12 [Helenalin],-0.421
15,C/C(O)=C(\C#N)C(=O)Nc1cc(Br)ccc1Br,0.329
16,CCCCC/C=C\C/C=C\C/C=C\C/C=C\CCCC(N)=O [Arachidonamide],0.0206
17,CN1C(=O)[C@]23CC4=CC=C[C@H](O)[C@H]4N2C(=O)[C@@]1(CO)SS3 [Gliotoxin],-1.32
18,C[C@@]12C(=O)OC(=O)[C@]1(C)[C@H]1CC[C@@H]2O1 [Cantharidin],-1.47
19,C/C=C(/C)C(=O)O[C@H]1C(C)=C2[C@H]([C@@H]1OC(=O)CCCCCCC)[C@@](C)(OC(C)=O)C[C@H](OC(=O)CCC)[C@@]1(O)[C@H]2OC(=O)[C@@]1(C)O [Thapsigargin],-0.223
20,CO[C@H](C/C=C\C=C\CC/C=C/C[C@H](C)/C=C/C(=C\C(=O)O)CC(=O)O)/C(C)=C\C=C(/C)C(=O)O [Bongkrekic acid],-0.264
